# Results are given in words; binding and its absence hold for the method and conditions named. Some entries that bind do so weakly or less than the wild type. For some assays here: Tags and fused reporters may be left off the sequences shown.
# B1: SHARPIN (AD fusion, yeast two-hybrid) (protein, UniProt Q9H0F6 1-387)
# chain: MAPPAGGAAAAASDLGSAAVLLAVHAAVRPLGAGPDAEAQLRRLQLSADPERPGRFRLELLGAGPGAVNLEWPLESVSYTIRGPTQHELQPPPGGPGTLSLHFLNPQEAQRWAVLVRGATVEGQNGSKSNSPPALGPEACPVSLPSPPEASTLKGPPPEADLPRSPGNLTEREELAGSLARAIAGGDEKGAAQVAAVLAQHRVALSVQLQEACFPPGPIRLQVTLEDAASAASAASSAHVALQVHPHCTVAALQEQVFSELGFPPAVQRWVIGRCLCVPERSLASYGVRQDGDPAFLYLLSAPREAPATGPSPQHPQKMDGELGRLFPPSLGLPPGPQPAASSLPSPLQPSWSCPSCTFINAPDRPGCEMCSTQRPCTWDPLAAAST
# B2: Strep-TRAF6 RZF1 (50–159) (domain or fragment, UniProt Q9Y4K3 50-159)
# chain: MEEIQGYDVEFDPPLESKYECPICLMALREAVQTPCGHRFCKACIIKSIRDAGHKCPVDNEILLENQLFPDNFAKREILSLMVKCPNEGCLHKMELRHLEDHQAHCEFAL
# Assays:
# [1] = target: YOD1, GAL4 AD or BD fusion (yeast two-hybrid) (UniProt Q5VVQ6); assay: two-hybrid; GAL4 AD (pGAD-C1) and BD (pGBD-C1) fusions co-transformed in S. cerevisiae PJ69-7A; growth on -HIS-LEU-TRP plates
# [2] = target: recombinant GST-YOD1 (UniProt Q5VVQ6); assay: pull-down; GST-YOD1 (or GST) on Glutathione Sepharose 4B; candidate protein incubated 2 hr at 4°C in assay buffer with 0,5% Triton X100; Western blot or Coomassie; both purified
Binder,binding [1],binding [2]
B1,binds weakly,
B2,,no binding

# — article PMC5340530
